Values from PubChem BioAssay AID1259327 (Drosophila RNAi Screening Center, 2017).
The deposit covers about 3,100 reagents; below is a part drawn at random. Of all reagents, 378 (12%) were called active. 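Hits include both directions; z-score sign shows ATP rise or fall; raw luminescence values are not plate-normalised.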 A number with no mark means an inactive call. Not stated in the record: the amount of reagent.

- Purpose: 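Knock-downs altering cellular ATP with no metal added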
- System: Drosophila S2R+ cells
- Knock-down reagent: long dsRNA against Drosophila genes
- Duration: 5 days (water added on day 4, read one day later)
- Conditions: water added as vehicle, no metal, one day before read-out
- Measured: 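Luciferase ATP signal per well, normalised to plate mean, duplicate average converted to z-score across plates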
- Scale: ATP z-score: higher = more total ATP than typical wells; ATP luminescence: higher = more total ATP
- Rule for the call: 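a hit is any knock-down whose absolute ATP z-score is greater than 1.5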
- Meaning of the calls: active = hit: ATP up or down; inactive = no clear ATP change

predicted target | dsRNA | ATP z-score, duplicate mean | ATP luminescence, replicate 1 (RLU) | ATP luminescence, replicate 2 (RLU)
fj | DRSC07619 | 3.13 (active) | 8.28e5 | 9.79e5
fj | DRSC27535 | 0.711 | 9.05e5 | 1.25e6
VhaAC45RP | DRSC15423 | 0.826 | 7.91e5 | 8.36e5
VhaAC45RP | DRSC26986 | -1.54 (active) | 8.99e5 | 1.16e6
Snmp2 | DRSC10228 | -0.377 | 8.51e5 | 8.42e5
Snmp2 | DRSC10843 | 0.296 | 8.01e5 | 7.46e5
Tsp42Eo | DRSC06184 | 0.139 | 6.48e5 | 6.16e5
CrzR | DRSC09781 | -0.201 | 9.14e5 | 8.27e5
CrzR | DRSC09782 | -0.567 | 6.54e5 | 7.10e5
CG43693 | DRSC09086 | -1.28 | 5.97e5 | 6.09e5
CG43693 | DRSC10625 | -0.0824 | 7.58e5 | 6.86e5
CG15408 | DRSC00423 | 0.457 | 7.79e5 | 7.28e5
CG15408 | DRSC39715 | 0.412 | 4.40e5 | 5.49e5
CG7840 | DRSC03075 | -2.12 (active) | 3.35e5 | 3.25e5
CG7840 | DRSC39867 | -0.413 | 4.74e5 | 6.32e5
Kr-h2 | DRSC03356 | -0.394 | 6.55e5 | 7.13e5
Kr-h2 | DRSC39752 | -0.795 | 4.04e5 | 4.18e5
CG2061 | DRSC19348 | 0.311 | 7.23e5 | 7.52e5
CG2061 | DRSC39511 | 1.8 (active) | 5.41e5 | 6.01e5
PIG-C | DRSC08241 | -0.789 | 8.39e5 | 7.48e5
CG17928 | DRSC02644 | 0.0925 | 7.06e5 | 7.65e5
CG17928 | DRSC39554 | -1.5 | 3.33e5 | 3.95e5
emp | DRSC04019 | 0.249 | 7.27e5 | 8.15e5
emp | DRSC04683 | -0.313 | 6.78e5 | 7.17e5
CngA | DRSC07362 | 0.222 | 6.03e5 | 6.76e5
Or22c | DRSC00766 | -0.984 | 6.39e5 | 5.71e5
Or22c | DRSC26292 | -1.13 | 8.86e5 | 1.05e6
TkR86C | DRSC16880 | -0.433 | 2.73e5 | 7.33e5
CG5906 | DRSC10557 | 0.0793 | 9.53e5 | 8.61e5
path | DRSC10361 | 0.173 | 1.03e6 | 8.13e5
path | DRSC39838 | 2.15 (active) | 6.02e5 | 6.59e5
mthl14 | DRSC07865 | 0.319 | 7.46e5 | 8.10e5
mthl14 | DRSC39645 | 0.485 | 4.79e5 | 5.19e5
ccb | DRSC20501 | 0.254 | 7.14e5 | 8.30e5
rho-4 | DRSC19761 | -0.506 | 6.58e5 | 6.49e5
rho-4 | DRSC19762 | 2.38 (active) | 8.13e5 | 7.27e5
Sys1 | DRSC14372 | 0.109 | 3.21e5 | 7.31e5
Or33c | DRSC03388 | 0.569 | 7.70e5 | 8.02e5
CG9663 | DRSC00724 | -0.928 | 3.70e5 | 4.61e5
bwa | DRSC01749 | -0.762 | 6.35e5 | 6.86e5
bwa | DRSC02310 | 0.0992 | 7.35e5 | 7.38e5
Mgat2 | DRSC16347 | -0.207 | 7.02e5 | 6.67e5
Mgat2 | DRSC29105 | 1.77 (active) | 1.13e6 | 9.52e5
Der-1 | DRSC00301 | -0.528 | 4.55e5 | 4.28e5
Der-1 | DRSC39555 | -0.182 | 3.82e5 | 5.27e5
wls | DRSC10605 | -2.46 (active) | 4.96e5 | 4.40e5
wls | DRSC29313 | 0.402 | 8.79e5 | 8.63e5

Reagents listed so far called active (8):
predicted target | dsRNA | ATP z-score, duplicate mean | ATP luminescence, replicate 1 (RLU) | ATP luminescence, replicate 2 (RLU)
fj | DRSC07619 | 3.13 (active) | 8.28e5 | 9.79e5
VhaAC45RP | DRSC26986 | -1.54 (active) | 8.99e5 | 1.16e6
CG7840 | DRSC03075 | -2.12 (active) | 3.35e5 | 3.25e5
CG2061 | DRSC39511 | 1.8 (active) | 5.41e5 | 6.01e5
path | DRSC39838 | 2.15 (active) | 6.02e5 | 6.59e5
rho-4 | DRSC19762 | 2.38 (active) | 8.13e5 | 7.27e5
Mgat2 | DRSC29105 | 1.77 (active) | 1.13e6 | 9.52e5
wls | DRSC10605 | -2.46 (active) | 4.96e5 | 4.40e5
